PubChem BioAssay AID743121, NCATS | 2013

- Aim: 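Partners whose loss is lethal together with topoisomerase I blockade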 (primary screen)
- Cell system: MDA-MB-231 cells, a human breast cancer line
- Reagent: single siRNA against human genes, 20 nM siRNA (0.8 pmol per well)
- Time to read-out: 120 h (drug added 48 h after transfection, read 72 h later)
- Conditions: camptothecin 20 nM (about EC30) for 72 h; vehicle 0.1% DMSO in parallel plates
- Detection: 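Cell viability by ATP luminescence (CellTiter-Glo) as % of non-targeting siRNA wells, and the log2 ratio of viability without drug over viability with camptothecin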
- Reading the numbers: log2 vehicle/camptothecin viability: higher = stronger sensitisation to camptothecin
- Call rule: 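Active genes have an RSA gene-level p-value below 0.001, computed from the ratios of their separate siRNAs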
In all, the deposit lists about 26,000 reagents; shown is a part drawn at random. Over the whole deposit, 167 (0.63%) were called active. 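Calls are per gene from RSA p-values that are not deposited; an individual active-marked siRNA can sensitise only weakly.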 Reagents against one gene are numbered here. Further read-outs or replicates are left out here.

no.	gene knocked down	reagent no.	log2 vehicle/camptothecin viability	call
1	TNS1 (tensin 1)	1	-0.199	inactive
2	TNS1 (tensin 1)	2	-0.00702	inactive
3	TNS1 (tensin 1)	3	-0.0747	inactive
4	TNS1 (tensin 1)	4	-0.334	inactive
5	LGR6 (leucine rich repeat containing G protein-coupled receptor 6)	1	-0.393	inactive
6	LGR6 (leucine rich repeat containing G protein-coupled receptor 6)	2	0.31	inactive
7	LGR6 (leucine rich repeat containing G protein-coupled receptor 6)	3	-0.365	inactive
8	LGR6 (leucine rich repeat containing G protein-coupled receptor 6)	4	0.318	inactive
9	EDIL3 (EGF like and discoidin domains 3)	1	0.00929	inactive
10	EDIL3 (EGF like and discoidin domains 3)	2	-0.105	inactive
11	EDIL3 (EGF like and discoidin domains 3)	3	-0.407	inactive
12	EDIL3 (EGF like and discoidin domains 3)	4	0.0392	inactive

Laid out differently: results already given.
LGR6 (leucine rich repeat containing G protein-coupled receptor 6) #2: log2 vehicle/camptothecin viability = 0.31; call = inactive
LGR6 (leucine rich repeat containing G protein-coupled receptor 6) #3: log2 vehicle/camptothecin viability = -0.365; call = inactive
LGR6 (leucine rich repeat containing G protein-coupled receptor 6) #4: log2 vehicle/camptothecin viability = 0.318; call = inactive
EDIL3 (EGF like and discoidin domains 3) #1: log2 vehicle/camptothecin viability = 0.00929; call = inactive

The listing continues.
no.	gene knocked down	reagent no.	log2 vehicle/camptothecin viability	call
13	METAP1D (methionyl aminopeptidase type 1D, mitochondrial)	1	0.177	inactive
14	METAP1D (methionyl aminopeptidase type 1D, mitochondrial)	2	-0.224	inactive
15	METAP1D (methionyl aminopeptidase type 1D, mitochondrial)	3	-0.223	inactive
16	METAP1D (methionyl aminopeptidase type 1D, mitochondrial)	4	-0.162	inactive
17	IREB2 (iron responsive element binding protein 2)	1	-0.0535	inactive
18	IREB2 (iron responsive element binding protein 2)	2	-0.0341	inactive
19	IREB2 (iron responsive element binding protein 2)	3	-0.408	inactive
20	ADAR (adenosine deaminase RNA specific)	1	-0.286	inactive
21	ADAR (adenosine deaminase RNA specific)	2	0.444	inactive
22	ADAR (adenosine deaminase RNA specific)	3	-0.231	inactive
23	ADAR (adenosine deaminase RNA specific)	4	0.299	inactive
24	DPEP3 (dipeptidase 3)	1	-0.121	inactive
25	DPEP3 (dipeptidase 3)	2	-0.16	inactive
26	DPEP3 (dipeptidase 3)	3	-0.255	inactive
27	DPEP3 (dipeptidase 3)	4	-0.573	inactive
28	ALG6 (ALG6 alpha-1,3-glucosyltransferase)	1	0.206	inactive
29	ALG6 (ALG6 alpha-1,3-glucosyltransferase)	2	-0.247	inactive
30	ALG6 (ALG6 alpha-1,3-glucosyltransferase)	3	-0.15	inactive
